These results are taken from PMC11024458.

These are yes or no findings as the source states them, for the method shown. Binding can be weak; no strength is given. For some assays here: Binding seen in cells or lysates may run through a third protein. For some assays here: Where a sequence is shown, tags or fusion partners need not be part of it.

The target in test [1] is T1, VdSti1-nLUC (Verticillium dahliae) (UniProt G2X8V1).
T1 sequence: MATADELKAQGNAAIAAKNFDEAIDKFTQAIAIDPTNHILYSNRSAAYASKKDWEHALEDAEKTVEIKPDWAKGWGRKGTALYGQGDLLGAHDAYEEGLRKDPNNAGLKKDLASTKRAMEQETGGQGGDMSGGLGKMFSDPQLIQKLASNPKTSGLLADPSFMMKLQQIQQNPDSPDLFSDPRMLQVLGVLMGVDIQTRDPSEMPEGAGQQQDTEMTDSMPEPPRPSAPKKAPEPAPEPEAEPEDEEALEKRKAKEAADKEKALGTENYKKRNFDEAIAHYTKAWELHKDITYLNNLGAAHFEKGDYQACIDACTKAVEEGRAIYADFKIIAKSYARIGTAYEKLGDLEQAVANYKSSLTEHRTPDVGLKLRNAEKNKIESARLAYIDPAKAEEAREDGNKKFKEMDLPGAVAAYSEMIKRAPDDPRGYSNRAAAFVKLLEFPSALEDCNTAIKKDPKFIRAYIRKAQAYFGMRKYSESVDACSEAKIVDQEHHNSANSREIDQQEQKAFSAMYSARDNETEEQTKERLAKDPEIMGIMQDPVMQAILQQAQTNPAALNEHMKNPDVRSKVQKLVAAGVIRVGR
In words: split reporter; luciferase complementation imaging (LCI): Agrobacterium with VdSti1-nLUC and VdExt2-cLUC mixed 1:1 and injected into 4 week-old tobacco (N. benthamiana) leaves; signal read with a cooled CCD.

Test [2] addresses T2, VdSti1 (pGBKT7-VdSti1 bait) (Verticillium dahliae) (UniProt G2X8V1).
T2 sequence: T1 sequence
The test is described as follows: two-hybrid; one-to-one verification: pGADT7 prey with pGBKT7-VdSti1 in yeast; SD-Leu-Trp, then SD-His-Leu-Trp-Ade with X-alpha-gal, growth observed after 1 week.

Take VdExt2-cLUC (Verticillium dahliae): in test [1], the binding entry is “binds”.
For “exostosin-2 protein VdExt2 (pGADT7 prey) (Verticillium dahliae)”, the binding entry in test [2] is “binds”.
